According to patent US20020119979A1, “Acyclic compounds and methods for treating multidrug resistance” (priority 2000, published 2002):
At least one read-out could not be matched to a standard name with certainty.

Tested on: NIH-MDR1-G185 cells
Assay: Fluorescent substrate (BODIPY-FL Taxol) accumulation assay
Assay type: cell-based
Conditions: BODIPY-FL taxol 500 nM, MDR modulator 10 micromolar, 40 min at 37° C.; fluorescence in NIH-MDR1-G185 cells in presence / absence of modulator
Description: Fluorescent Substrate Accumulation Assay
NIH-MDR1-GI 85 cells (obtained from M. Gottesman, NI1H) were harvested and resuspended in RPMI-1640 containing L-glutamine, 10% Cosmic Calf Serum and penicillin-streptomycin. Cell suspension aliquots of 175 microliters (1×10^5 cells) were added to individual wells of a 96 well microtiter plate and preincubated for 15 min at 37° C. with 20 microliters MDR modulator diluted in cell culture media to give a final concentration of 10 micromolar. Control wells received no modulating agent. BODIPY-FL Taxol (Molecular Probes, Eugene, Oreg.) was added to each well in 10 microliter aliquots to give a final concentration of 500 nM and cells were incubated for 40 min at 37° C. Cells were centrifuged at 100× g for 5 min at 4° C. and the cell pellet washed with 200 microliters cold PBS to remove fluorescent medium from wells. Cells were centrifuged once more, media removed, and cells resuspended in 200 microliters cold PBS. Fluorescence accumulation was measured in a fluorescence plate reader fitted with an excitation filter of 485 nm and an emission filter of 538 nm. BODIPY-FL taxol accumulation in the cells was calculated as follows:
Accumulation Index=(fluorescence in NIH-MDR1-G185 cells in the presence of modulator)/(fluorescence in NIH-MDR1-G185 cells in absence of modulator) […]

## COc1cc(C(=O)N[C@@H](Cc2cccnc2)C(=O)N2CCN(C(c3ccccc3)c3ccccc3)CC2)cc(OC)c1OC [Example 3, N-[2-(4-Benzhydryl-piperazin-1-yl)-2-oxo-1-pyridin-3-ylmethyl-ethyl]-3,4,5-trimethoxy-benzamide]
  Accumulation Index: 7
